These results are taken from patent publication EP0804445B1, “METALLOCENIC DIARYLETHYLENE DERIVATIVES, METHODS FOR THEIR PREPARATION AND PHARMACEUTICAL COMPOSITIONS CONTAINING SAME” (Modelisation et Mise au Point de Molecules Medicanales - …, priority 1994, dated 1996).

In experiment [1] the test system is lignée MCF-7 ATCC HTB. Description: MTT cytotoxicity test (cell viability). The note with it: Homo sapiens, 120 h; MCF7 ATCC cells; 5 days incubation with compound; MTT readout at 550 nm; calculated from points of Figures 1A, 1B and 2 between 5.10^-7 and 10^-5 moles/l; read-out: IC50 (µmole) MCF7 ATCC. Type of experiment: cell-based, humaines. From the text:
(§1) L'évaluation de la cytotoxicité des isomères "trans" et "cis" du 1-[4-(2-diméthylaminoéthoxy) phényl]-1-(4-hydroxyphényl)-2-ferrocényl-1-butène a fait l'objet de tests sur des lignées de cellules humaines dérivées d'une effusion pleurale d'un adénocarcinome mammaire (lignée MCF-7 ATCC HTB) ainsi que de l'un de ses variants (lignée MCF-7P).
(§2) Ces cellules ont été préalablement cultivées dans du milieu Dulbecco MEM additionné de 10% de sérum de veau foetal et en atmosphère humide (90% d'humidité relative) comprenant 5% de CO2. En phase exponentielle de croissance, ces cellules ont été trypsinées et repiquées dans des plaques de 24 puits de 1 ml à raison de 2.10^5 cellules par puits.
(§3) Après 3 jours d'incubation, les composés à tester ont été ajoutés aux doses appropriées et les plaques ont été mises à incuber pendant 5 jours.
(§4) A l'issue de cette incubation, la viabilité cellulaire des cultures a été déterminée à l'aide du test dit "MTT" consistant à ajouter dans chaque puits 20 µl d'une solution contenant 5 mg de bromure de (diméthyl-4,5-thiazol-2-yl)diphényl-2,5-tétrazolium (MTT) dans 1 ml de tampon PBS, et à laisser incuber les plaques pendant 1 heure à 37°C dans des conditions atmosphériques identiques à celles définies ci-dessus. Le MTT est métabolisé dans les cellules vivantes en un composé bleu insoluble (formazan). […]

Experiment [2] concerns lignée MCF-7P. Description: MTT cytotoxicity test (cell viability). Type of experiment: cell-based, humaines. The note with it: 120 h; MCF7-P variant cells; 5 days incubation with compound; MTT readout at 550 nm; calculated from points of Figures 1A, 1B and 2 between 5.10^-7 and 10^-5 moles/l; read-out: IC50 (µmole) MCF7-P.
Description: as §1, §2, §3, §4

What is called IC50 is the concentration that inhibits the measured activity by half. On to `CC/C(=C(\c1ccccc1)c1ccc(OCCN(C)C)cc1)c1ccccc1` [Tamoxifène, tamoxifène, reference compound], for which the IC50 in experiment [1] is 6.4 µM; in experiment [2], 7.2 µM.
